Laboratory results from publication PMC5225548.
No constants are given. Whether binding was seen depends on the method and setting. In cells and extracts the contact can be indirect. Some binding calls cover weakened binding; strength is not graded here.

Amino acid sequences for entries named in this document (tags omitted). A change or cut given only in a name is not applied to a line headed by its entry.
UniProt P04792: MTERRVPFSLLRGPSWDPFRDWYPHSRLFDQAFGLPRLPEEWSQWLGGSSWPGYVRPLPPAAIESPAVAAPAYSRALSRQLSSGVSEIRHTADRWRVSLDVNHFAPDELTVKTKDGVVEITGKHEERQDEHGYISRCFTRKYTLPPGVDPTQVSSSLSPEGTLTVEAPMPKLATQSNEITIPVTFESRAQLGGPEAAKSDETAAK
UniProt Q15365: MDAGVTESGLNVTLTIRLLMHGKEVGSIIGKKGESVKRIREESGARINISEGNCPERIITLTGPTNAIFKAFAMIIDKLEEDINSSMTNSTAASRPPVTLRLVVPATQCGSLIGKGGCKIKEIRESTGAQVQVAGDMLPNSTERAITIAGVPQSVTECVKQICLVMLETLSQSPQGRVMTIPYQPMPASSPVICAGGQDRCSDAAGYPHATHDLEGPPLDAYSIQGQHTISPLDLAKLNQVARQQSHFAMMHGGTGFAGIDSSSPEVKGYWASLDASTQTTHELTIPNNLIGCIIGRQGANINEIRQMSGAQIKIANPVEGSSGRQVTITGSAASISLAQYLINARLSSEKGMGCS

Target: HSPB1-P182L fused to a V5-tag (HeLa) (human) (UniProt P04792)
Test: co-IP; transiently transfected HeLa cells; pull-down directed against the V5-tag of the HSPB1 constructs (anti-V5 beads), PCBP1 detected by its VSV-tag; EGFP-V5 as negative control; lysis and wash buffer 0.5% Nonidet P-40 in PBS salts; overnight at 4 °C

PCBP1-VSV (from UniProt Q15365 1-356)
binding: binds
